Laboratory results: patent US20100261245
The exact form of at least one protein or probe is not confirmed. A negative result means that nothing was seen under these conditions.

Test system: VEGF
Assay: SPR
Details: described as DNA, printed with m after each base; no binding affinity, BIAcore 2000, aptamer 30-500 nM; purified recombinant protein; single-stranded DNA; variant of anti-VEGF 2'-OMe-RNA aptamer

“ATGCAGTTTGAGAAGTCGCGCAT [anti-VEGF DNA aptamer (same sequence)]”: no binding.
